Results: the supplement of paper PMC11098740
Structures can show the parent of a compound that is named as a salt. The list shows a part of the results. Repeats are few or missing, and single values can be far off.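 Test system: a mixed pool of 41 HAP1 clones in which 61 cancer-associated proteins carry fluorescent tags inserted into introns, and each clone is identified from its image pattern. Read-outs are compared with DMSO-treated control wells. The BRD4 degrader dBET6 served as the positive control.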

Amino acid sequences for entries named in this document (tags omitted).
UniProt O14980, whole entry: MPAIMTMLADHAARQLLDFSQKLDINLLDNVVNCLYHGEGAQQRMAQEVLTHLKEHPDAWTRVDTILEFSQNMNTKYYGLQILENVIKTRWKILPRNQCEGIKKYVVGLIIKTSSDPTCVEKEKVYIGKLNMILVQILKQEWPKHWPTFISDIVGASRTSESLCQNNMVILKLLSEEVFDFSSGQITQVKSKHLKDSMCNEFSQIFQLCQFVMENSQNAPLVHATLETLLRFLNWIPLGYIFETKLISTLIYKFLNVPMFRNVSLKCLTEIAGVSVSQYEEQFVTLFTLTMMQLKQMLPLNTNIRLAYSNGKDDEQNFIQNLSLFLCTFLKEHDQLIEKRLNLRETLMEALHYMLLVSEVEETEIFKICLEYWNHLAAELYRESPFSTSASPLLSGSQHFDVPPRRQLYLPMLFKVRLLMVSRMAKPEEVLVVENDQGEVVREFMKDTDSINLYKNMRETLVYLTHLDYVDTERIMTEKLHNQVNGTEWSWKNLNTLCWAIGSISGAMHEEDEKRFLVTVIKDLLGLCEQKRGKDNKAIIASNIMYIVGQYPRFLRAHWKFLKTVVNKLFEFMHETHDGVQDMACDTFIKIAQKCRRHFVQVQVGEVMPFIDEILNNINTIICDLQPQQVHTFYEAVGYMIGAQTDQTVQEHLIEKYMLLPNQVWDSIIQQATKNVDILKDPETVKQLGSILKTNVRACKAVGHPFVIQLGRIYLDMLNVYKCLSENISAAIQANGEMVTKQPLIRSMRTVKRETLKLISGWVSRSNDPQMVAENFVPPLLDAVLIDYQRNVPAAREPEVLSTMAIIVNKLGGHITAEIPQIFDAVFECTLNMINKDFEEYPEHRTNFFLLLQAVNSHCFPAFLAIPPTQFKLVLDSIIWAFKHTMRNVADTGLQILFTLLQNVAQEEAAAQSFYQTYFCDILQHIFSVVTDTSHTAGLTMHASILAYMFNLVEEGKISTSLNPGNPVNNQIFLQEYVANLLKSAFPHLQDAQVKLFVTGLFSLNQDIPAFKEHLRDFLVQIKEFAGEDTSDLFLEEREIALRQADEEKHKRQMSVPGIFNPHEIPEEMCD

biological target: XPO1 (intron 15 mScarlet tag, HAP1) (UniProt O14980); test: XPO1 fluorescence intensity change vs DMSO (log2 fold change); higher = more XPO1 protein; settings: 6 h

Row | SMILES | XPO1 fluorescence intensity change (log2)
1 | CN1CC2c3ccccc3Oc3ccc(Cl)cc3C2C1 (configuration not stated) [Asenapine] (10.00077168 µM) | 0.0825
2 | Nc1nc(NC2CC2)c2ncn([C@H]3C=C[C@@H](CO)C3)c2n1 [Abacavir] (10 µM) | -0.135
3 | Cc1c(OCC(F)(F)F)ccnc1C[S+]([O-])c1nc2ccccc2[nH]1 (configuration not stated) [Lansoprazole] (10 µM) | 0.0685
4 | CN(Cc1cnc2nc(N)nc(N)c2n1)c1ccc(C(=O)N[C@@H](CCC(=O)O)C(=O)O)cc1 [Methotrexate] (0.04575 µM) | 0.216
5 | Nc1nc(F)nc2c1ncn2[C@@H]1O[C@H](COP(=O)(O)O)[C@@H](O)[C@@H]1O [Fludarabine Phosphate] (20 µM) | 0.127
6 | CC(C)(Oc1ccc(Cl)cc1)C(=O)O [Clofibric Acid] (10 µM) | -0.0429
7 | Cc1cn[nH]c1 [Fomepizole] (10 µM) | -0.0585
8 | Nc1nnc(-c2cccc(Cl)c2Cl)c(N)n1 [Lamotrigine] (10 µM) | 0.162
9 | CCN(CC)C(=O)/C(C#N)=C/c1cc(O)c(O)c([N+](=O)[O-])c1 [Entacapone] (10 µM) | -0.00924
10 | NC(=O)c1ncn([C@@H]2O[C@H](CO)[C@@H](O)[C@H]2O)n1 [Ribavirin] (10 µM) | -0.105
11 | C[C@]12C=CC(=O)C=C1CC[C@@H]1[C@@H]2[C@@H](O)C[C@@]2(C)[C@H]1CC[C@]2(O)C(=O)CO [Prednisolone] (10 µM) | -0.0599
12 | C[N+]1(CCCCC[N+]2(C)CCCC2)CCCC1 [Pentolinium Tartrate] (10 µM) | 0.116
